Laboratory results taken from US20100008925A1.
No constants are given. Whether binding was seen depends on the method and setting. Some binding calls cover weakened binding; strength is not graded here.

Sequences of proteins named here, by UniProt entry; tags and fusion partners are left off. Residues count along the entry.
UniProt P05107, residues 124-363: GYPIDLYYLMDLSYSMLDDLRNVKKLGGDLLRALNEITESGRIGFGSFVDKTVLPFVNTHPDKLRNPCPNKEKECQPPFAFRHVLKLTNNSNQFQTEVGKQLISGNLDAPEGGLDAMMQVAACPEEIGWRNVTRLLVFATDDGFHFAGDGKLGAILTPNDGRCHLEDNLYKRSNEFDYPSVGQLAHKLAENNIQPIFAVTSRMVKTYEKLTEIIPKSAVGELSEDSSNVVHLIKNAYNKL

Experiments:
[1] = target: purified recombinant CD18 βA domain (human) (UniProt P05107); test: phage display panning on the CD18 βA domain, followed by clone screening
[2] = target: purified recombinant CD18 βA domain (human) (UniProt P05107); test: phage display, three rounds of panning

binding [1]: binds
binding [2]: binds
B1: anti-CD18 βA scFv (scFv, V domains shown)
VH: VKLQQSGTEVVKPGASVKLSCKASGYIFTSYDIDWVRQTPEQGLEWIGWIFPGEGSTEYNEKFKGRATLSVDKSSSTAYMELTRLTSEDSAVYFCARGDYTYRRYFDLWGQGTTVTVSS
